These are yes or no findings as the source states them, for the method shown. A result given as binding can be weak or reduced; the word gives no strength. Tags and fused reporters may be left off the sequences shown.

The target in this assay is His-ERG (purified full-length ERG). Nature of the assay: pull-down; purified His-tagged protein (ERG, other ETS factors or PABPC1) on nickel / His isolation magnetic beads; purified GST-tagged protein added; NP-40 lysis buffer (50 mM Tris-HCl pH 7.4, 250 mM NaCl, 5 mM EDTA, 50 mM NaF, 1% NP-40) with BSA, 4 °C, 2 h; immunoblot; both purified.

B1: GST-EWS 1 to 355 (ntEWS) (domain or fragment, UniProt Q01844 1-355)
chain: MASTDYSTYSQAAAQQGYSAYTAQPTQGYAQTTQAYGQQSYGTYGQPTDVSYTQAQTTATYGQTAYATSYGQPPTGYTTPTAPQAYSQPVQGYGTGAYDTTTATVTTTQASYAAQSAYGTQPAYPAYGQQPAATAPTRPQDGNKPTETSQPQSSTGGYNQPSLGYGQSNYSYPQVPGSYPMQPVTAPPSYPPTSYSSTQPTSYDQSSYSQQNTYGQPSSYGQQSSYGQQSSYGQQPPTSYPPQTGSYSQAPSQYSQQSSSYGQQSSFRQDHPSSMGVYGQESGGFSGPGENRSMSGPDNRGRGRGGFDRGGMSRGGRGGGRGGMGSAGERGGFNKPGGPMDEGPDLDLGPPVDPD
For B1, the binding entry is “binds”.

Values taken from article PMC10704431, “A complex with poly(A)-binding protein and EWS facilitates the transcriptional function of oncogenic ETS transcription factors in prostate cells” (The Journal of Biological Chemistry, 2023).
